# This is one part of the list. At the low end of the ranking, values are background and their order means little.
# Biological target: T1, PUM1 PUF domain R3-THE R4-TFR C935T + R936H + Q939E + N971T + H972F + Q975R (UniProt Q14671)
# T1 sequence: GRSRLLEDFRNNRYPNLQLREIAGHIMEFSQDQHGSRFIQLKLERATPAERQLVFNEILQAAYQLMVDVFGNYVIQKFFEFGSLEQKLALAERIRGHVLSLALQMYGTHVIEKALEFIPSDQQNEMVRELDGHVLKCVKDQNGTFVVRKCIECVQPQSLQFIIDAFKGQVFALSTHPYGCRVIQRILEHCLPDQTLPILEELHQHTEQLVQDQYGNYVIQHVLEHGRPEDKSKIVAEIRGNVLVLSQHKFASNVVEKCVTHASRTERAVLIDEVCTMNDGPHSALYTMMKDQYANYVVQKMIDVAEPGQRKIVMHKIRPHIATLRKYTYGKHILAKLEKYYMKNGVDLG
# Details: yeast three-hybrid, YBZ-1, SC-Leu-His + 0.5 mM 3-AT, 4 days
row,Sequence,binding signal (log2 enrichment (interaction score))
1,GGCUAGAACUAGUGGAUCCCCCGGCGCCCGGCGGCUCGAGCCCGGGUAAGGCUACACCGUCUGCAUGCCGCCGGGCGCCAUGCCUGCAGGUCGACUCUAGAAAACAUG,-6.66
2,GGCUAGAACUAGUGGAUCCCCCGGCGCCCGGCGGCUCGAGCCCGGGUAAGCUUAAGCAGUCUGCAUGCCGCCGGGCGCCAUGCCUGCAGGUCGACUCUAGAAAACAUG,< -6.1
3,GGCUAGAACUAGUGGAUCCCCCGGCGCCCGGCGGCUCGAGCCCGGGUAAGGGUGCGUAGUCUGCAUGCCGCCGGGCGCCAUGCCUGCAGGUCGACUCUAGAAAACAUG,< -7.03
4,GGCUAGAACUAGUGGAUCCCCCGGCGCCCGGCGGCUCGAGCCCGGGUAAGUGGCAGUGGUCUGCAUGCCGCCGGGCGCCAUGCCUGCAGGUCGACUCUAGAAAACAUG,< -6.41
5,GGCUAGAACUAGUGGAUCCCCCGGCGCCCGGCGGCUCGAGCCCGGGUAAGAGUAAGUAGUCUGCAUGCCGCCGGGCGCCAUGCCUGCAGGUCGACUCUAGAAAACAUG,-6.3
6,GGCUAGAACUAGUGGAUCCCCCGGCGCCCGGCGGCUCGAGCCCGGGUAAGCUAACUUAGUCUGCAUGCCGCCGGGCGCCAUGCCUGCAGGUCGACUCUAGAAAACAUG,-6.83
7,GGCUAGAACUAGUGGAUCCCCCGGCGCCCGGCGGCUCGAGCCCGGGUAAGGGUAAGAUGUCUGCAUGCCGCCGGGCGCCAUGCCUGCAGGUCGACUCUAGAAAACAUG,-6.58
8,GGCUAGAACUAGUGGAUCCCCCGGCGCCCGGCGGCUCGAGCCCGGGUAAGUGUUACCAGUCUGCAUGCCGCCGGGCGCCAUGCCUGCAGGUCGACUCUAGAAAACAUG,-7.65
9,GGCUAGAACUAGUGGAUCCCCCGGCGCCCGGCGGCUCGAGCCCGGGUAAGCUUAAGAAGUCUGCAUGCCGCCGGGCGCCAUGCCUGCAGGUCGACUCUAGAAAACAUG,-7.08
10,GGCUAGAACUAGUGGAUCCCCCGGCGCCCGGCGGCUCGAGCCCGGGUAAGUUUAUGCAGUCUGCAUGCCGCCGGGCGCCAUGCCUGCAGGUCGACUCUAGAAAACAUG,-6.67
11,GGCUAGAACUAGUGGAUCCCCCGGCGCCCGGCGGCUCGAGCCCGGGUAAGUGUCAGACGUCUGCAUGCCGCCGGGCGCCAUGCCUGCAGGUCGACUCUAGAAAACAUG,-7.38
12,GGCUAGAACUAGUGGAUCCCCCGGCGCCCGGCGGCUCGAGCCCGGGUAAGUAGACGGAGUCUGCAUGCCGCCGGGCGCCAUGCCUGCAGGUCGACUCUAGAAAACAUG,-6.71
13,GGCUAGAACUAGUGGAUCCCCCGGCGCCCGGCGGCUCGAGCCCGGGUAAGCCAAACUAGUCUGCAUGCCGCCGGGCGCCAUGCCUGCAGGUCGACUCUAGAAAACAUG,-7.34
14,GGCUAGAACUAGUGGAUCCCCCGGCGCCCGGCGGCUCGAGCCCGGGUAAGAGUAUAAAGUCUGCAUGCCGCCGGGCGCCAUGCCUGCAGGUCGACUCUAGAAAACAUG,-6.84
15,GGCUAGAACUAGUGGAUCCCCCGGCGCCCGGCGGCUCGAGCCCGGGUAAGUUUUCUUUGUCUGCAUGCCGCCGGGCGCCAUGCCUGCAGGUCGACUCUAGAAAACAUG,-6.13
16,GGCUAGAACUAGUGGAUCCCCCGGCGCCCGGCGGCUCGAGCCCGGGUAAGUGGAAUUAGUCUGCAUGCCGCCGGGCGCCAUGCCUGCAGGUCGACUCUAGAAAACAUG,-6.67
17,GGCUAGAACUAGUGGAUCCCCCGGCGCCCGGCGGCUCGAGCCCGGGUAAGCAUCCGGCGUCUGCAUGCCGCCGGGCGCCAUGCCUGCAGGUCGACUCUAGAAAACAUG,< -7.08
18,GGCUAGAACUAGUGGAUCCCCCGGCGCCCGGCGGCUCGAGCCCGGGUAAGUGUGCAACGUCUGCAUGCCGCCGGGCGCCAUGCCUGCAGGUCGACUCUAGAAAACAUG,-7.81
19,GGCUAGAACUAGUGGAUCCCCCGGCGCCCGGCGGCUCGAGCCCGGGUAAGUUUCCAUCGUCUGCAUGCCGCCGGGCGCCAUGCCUGCAGGUCGACUCUAGAAAACAUG,-6.84
20,GGCUAGAACUAGUGGAUCCCCCGGCGCCCGGCGGCUCGAGCCCGGGUAAGUCUGCGAUGUCUGCAUGCCGCCGGGCGCCAUGCCUGCAGGUCGACUCUAGAAAACAUG,-7.67

# Given with bars between the fields: part of the list above
row | Sequence | binding signal (log2 enrichment (interaction score))
5 | GGCUAGAACUAGUGGAUCCCCCGGCGCCCGGCGGCUCGAGCCCGGGUAAGAGUAAGUAGUCUGCAUGCCGCCGGGCGCCAUGCCUGCAGGUCGACUCUAGAAAACAUG | -6.3
6 | GGCUAGAACUAGUGGAUCCCCCGGCGCCCGGCGGCUCGAGCCCGGGUAAGCUAACUUAGUCUGCAUGCCGCCGGGCGCCAUGCCUGCAGGUCGACUCUAGAAAACAUG | -6.83
7 | GGCUAGAACUAGUGGAUCCCCCGGCGCCCGGCGGCUCGAGCCCGGGUAAGGGUAAGAUGUCUGCAUGCCGCCGGGCGCCAUGCCUGCAGGUCGACUCUAGAAAACAUG | -6.58
8 | GGCUAGAACUAGUGGAUCCCCCGGCGCCCGGCGGCUCGAGCCCGGGUAAGUGUUACCAGUCUGCAUGCCGCCGGGCGCCAUGCCUGCAGGUCGACUCUAGAAAACAUG | -7.65
9 | GGCUAGAACUAGUGGAUCCCCCGGCGCCCGGCGGCUCGAGCCCGGGUAAGCUUAAGAAGUCUGCAUGCCGCCGGGCGCCAUGCCUGCAGGUCGACUCUAGAAAACAUG | -7.08
10 | GGCUAGAACUAGUGGAUCCCCCGGCGCCCGGCGGCUCGAGCCCGGGUAAGUUUAUGCAGUCUGCAUGCCGCCGGGCGCCAUGCCUGCAGGUCGACUCUAGAAAACAUG | -6.67
11 | GGCUAGAACUAGUGGAUCCCCCGGCGCCCGGCGGCUCGAGCCCGGGUAAGUGUCAGACGUCUGCAUGCCGCCGGGCGCCAUGCCUGCAGGUCGACUCUAGAAAACAUG | -7.38
12 | GGCUAGAACUAGUGGAUCCCCCGGCGCCCGGCGGCUCGAGCCCGGGUAAGUAGACGGAGUCUGCAUGCCGCCGGGCGCCAUGCCUGCAGGUCGACUCUAGAAAACAUG | -6.71

# The list goes on:

row,Sequence,binding signal (log2 enrichment (interaction score))
1,GGCUAGAACUAGUGGAUCCCCCGGCGCCCGGCGGCUCGAGCCCGGGUAAGUUUAAGCGGUCUGCAUGCCGCCGGGCGCCAUGCCUGCAGGUCGACUCUAGAAAACAUG,-5.91
2,GGCUAGAACUAGUGGAUCCCCCGGCGCCCGGCGGCUCGAGCCCGGGUAAGUUUACAAGGUCUGCAUGCCGCCGGGCGCCAUGCCUGCAGGUCGACUCUAGAAAACAUG,< -7.33
3,GGCUAGAACUAGUGGAUCCCCCGGCGCCCGGCGGCUCGAGCCCGGGUAAGUAGACGUAGUCUGCAUGCCGCCGGGCGCCAUGCCUGCAGGUCGACUCUAGAAAACAUG,-7.04
4,GGCUAGAACUAGUGGAUCCCCCGGCGCCCGGCGGCUCGAGCCCGGGUAAGCGCAUGAUGUCUGCAUGCCGCCGGGCGCCAUGCCUGCAGGUCGACUCUAGAAAACAUG,-6.95
5,GGCUAGAACUAGUGGAUCCCCCGGCGCCCGGCGGCUCGAGCCCGGGUAAGUUUACGUCGUCUGCAUGCCGCCGGGCGCCAUGCCUGCAGGUCGACUCUAGAAAACAUG,-6.46
6,GGCUAGAACUAGUGGAUCCCCCGGCGCCCGGCGGCUCGAGCCCGGGUAAGUACACGUCGUCUGCAUGCCGCCGGGCGCCAUGCCUGCAGGUCGACUCUAGAAAACAUG,-8.24
7,GGCUAGAACUAGUGGAUCCCCCGGCGCCCGGCGGCUCGAGCCCGGGUAAGCUGACGUCGUCUGCAUGCCGCCGGGCGCCAUGCCUGCAGGUCGACUCUAGAAAACAUG,-6.25
8,GGCUAGAACUAGUGGAUCCCCCGGCGCCCGGCGGCUCGAGCCCGGGUAAGAUCACGUAGUCUGCAUGCCGCCGGGCGCCAUGCCUGCAGGUCGACUCUAGAAAACAUG,-7.29
9,GGCUAGAACUAGUGGAUCCCCCGGCGCCCGGCGGCUCGAGCCCGGGUAAGUUAACGGAGUCUGCAUGCCGCCGGGCGCCAUGCCUGCAGGUCGACUCUAGAAAACAUG,-6.99
10,GGCUAGAACUAGUGGAUCCCCCGGCGCCCGGCGGCUCGAGCCCGGGUAAGUCUAAGUAGUCUGCAUGCCGCCGGGCGCCAUGCCUGCAGGUCGACUCUAGAAAACAUG,-7.77
11,GGCUAGAACUAGUGGAUCCCCCGGCGCCCGGCGGCUCGAGCCCGGGUAAGUGAAAGUAGUCUGCAUGCCGCCGGGCGCCAUGCCUGCAGGUCGACUCUAGAAAACAUG,-7.11
12,GGCUAGAACUAGUGGAUCCCCCGGCGCCCGGCGGCUCGAGCCCGGGUAAGUAUACGCAGUCUGCAUGCCGCCGGGCGCCAUGCCUGCAGGUCGACUCUAGAAAACAUG,-7.73
13,GGCUAGAACUAGUGGAUCCCCCGGCGCCCGGCGGCUCGAGCCCGGGUAAGCGUGGAUUGUCUGCAUGCCGCCGGGCGCCAUGCCUGCAGGUCGACUCUAGAAAACAUG,< -7.96
14,GGCUAGAACUAGUGGAUCCCCCGGCGCCCGGCGGCUCGAGCCCGGGUAAGUUGUCUUAGUCUGCAUGCCGCCGGGCGCCAUGCCUGCAGGUCGACUCUAGAAAACAUG,-7.03
15,GGCUAGAACUAGUGGAUCCCCCGGCGCCCGGCGGCUCGAGCCCGGGUAAGUAUGCGACGUCUGCAUGCCGCCGGGCGCCAUGCCUGCAGGUCGACUCUAGAAAACAUG,-7.92
16,GGCUAGAACUAGUGGAUCCCCCGGCGCCCGGCGGCUCGAGCCCGGGUAAGUUUGCCUAGUCUGCAUGCCGCCGGGCGCCAUGCCUGCAGGUCGACUCUAGAAAACAUG,-6.75
17,GGCUAGAACUAGUGGAUCCCCCGGCGCCCGGCGGCUCGAGCCCGGGUAAGUUUACUUCGUCUGCAUGCCGCCGGGCGCCAUGCCUGCAGGUCGACUCUAGAAAACAUG,< -7.69
18,GGCUAGAACUAGUGGAUCCCCCGGCGCCCGGCGGCUCGAGCCCGGGUAAGGUGAUGAAGUCUGCAUGCCGCCGGGCGCCAUGCCUGCAGGUCGACUCUAGAAAACAUG,-7.26
19,GGCUAGAACUAGUGGAUCCCCCGGCGCCCGGCGGCUCGAGCCCGGGUAAGCGAAGCUCGUCUGCAUGCCGCCGGGCGCCAUGCCUGCAGGUCGACUCUAGAAAACAUG,-6.12

# Reference: PMC8384837
